The other results are listed elsewhere or left out.
What was measured:
Assay in all cases: glycan array binding signal (z-score within array); higher = stronger binding
Details in all cases: glycan notation: IUPAC condensed, linker removed
[1] = molecular target: Gal(b1-3)GalNAc(b1-3)Gal(a1-4)Gal(b1-4)Glc
In short: (§1)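 Arrays were curated from the Consortium for Functional Glycomics database, 3228 in total, and kept only where the protein sequence was available. Binding is expressed as a within-array Z-score. This score was averaged across arrays of the same protein sequence at different concentrations or buffers and across linkers, and negative values can be read as non-binding.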

[2] = molecular target: Gal(b1-3)GalNAc(b1-4)Gal(b1-4)Glc
In short: as §1

[3] = molecular target: Gal(b1-3)GalNAc(b1-4)[Neu5Ac(a2-3)]Gal(b1-4)Glc
In short: as §1

Gal(b1-3)GlcNAc = molecular target: Gal(b1-3)GlcNAc
In short: as §1

[4] = molecular target: Gal(b1-3)GlcNAc(a1-3)Gal(b1-4)GlcNAc
In short: as §1

[5] = molecular target: Gal(b1-3)GlcNAc(a1-6)Gal(b1-4)GlcNAc
In short: as §1

Gal(b1-3)GlcNAc(b1-2)Man = molecular target: Gal(b1-3)GlcNAc(b1-2)Man
In short: as §1

[6] = molecular target: Gal(b1-3)GlcNAc(b1-2)Man(a1-3)[Gal(b1-3)GlcNAc(b1-2)Man(a1-6)]Man(b1-4)GlcNAc(b1-4)GlcNAc
In short: as §1

[7] = molecular target: Gal(b1-3)GlcNAc(b1-2)Man(a1-3)[Gal(b1-3)GlcNAc(b1-2)Man(a1-6)]Man(b1-4)GlcNAc(b1-4)[Fuc(a1-6)]GlcNAc
In short: as §1

[8] = molecular target: Gal(b1-3)GlcNAc(b1-2)Man(a1-3)[GlcNAc(b1-4)][Gal(b1-3)GlcNAc(b1-2)Man(a1-6)]Man(b1-4)GlcNAc(b1-4)GlcNAc
In short: as §1

[9] = molecular target: Gal(b1-3)GlcNAc(b1-2)[Gal(b1-3)GlcNAc(b1-6)]Man(a1-6)[Gal(b1-3)GlcNAc(b1-2)Man(a1-3)]Man(b1-4)GlcNAc(b1-4)GlcNAc
In short: as §1

[10] = molecular target: Gal(b1-3)GlcNAc(b1-3)Gal(b1-3)GlcNAc
In short: as §1

[11] = molecular target: Gal(b1-3)GlcNAc(b1-3)Gal(b1-4)Glc
In short: as §1

[12] = molecular target: Gal(b1-3)GlcNAc(b1-3)Gal(b1-4)GlcNAc
In short: as §1

[13] = molecular target: Gal(b1-3)GlcNAc(b1-3)Gal(b1-4)GlcNAc(b1-2)Man(a1-3)[Gal(b1-3)GlcNAc(b1-3)Gal(b1-4)GlcNAc(b1-2)Man(a1-6)]Man(b1-4)GlcNAc(b1-4)GlcNAc
In short: as §1

[14] = molecular target: Gal(b1-3)GlcNAc(b1-3)Gal(b1-4)GlcNAc(b1-2)[Gal(b1-3)GlcNAc(b1-3)Gal(b1-4)GlcNAc(b1-6)]Man(a1-6)[Gal(b1-3)GlcNAc(b1-3)Gal(b1-4)GlcNAc(b1-2)Man(a1-3)]Man(b1-4)GlcNAc(b1-4)[Fuc(a1-6)]GlcNAc
In short: as §1

[15] = molecular target: Gal(b1-3)GlcNAc(b1-3)Gal(b1-4)GlcNAc(b1-3)Gal(b1-4)GlcNAc(b1-2)[Gal(b1-3)GlcNAc(b1-3)Gal(b1-4)GlcNAc(b1-3)Gal(b1-4)GlcNAc(b1-6)]Man(a1-6)[Gal(b1-3)GlcNAc(b1-3)Gal(b1-4)GlcNAc(b1-3)Gal(b1-4)GlcNAc(b1-2)Man(a1-3)]Man(b1-4)GlcNAc(b1-4)[Fuc(a1-6)]GlcNAc
In short: as §1

[16] = molecular target: Gal(b1-3)GlcNAc(b1-3)Gal(b1-4)GlcNAc(b1-6)[Gal(b1-3)GlcNAc(b1-3)]Gal(b1-4)Glc
In short: as §1

[17] = molecular target: Gal(b1-3)GlcNAc(b1-3)Gal(b1-4)[Fuc(a1-3)]GlcNAc
In short: as §1

[18] = molecular target: Gal(b1-3)GlcNAc(b1-3)Gal(b1-4)[Fuc(a1-3)]GlcNAc(b1-6)[Gal(b1-3)GlcNAc(b1-3)]Gal(b1-4)Glc
In short: as §1

[19] = molecular target: Gal(b1-3)GlcNAc(b1-3)GalNAc
In short: as §1

[20] = molecular target: Gal(b1-3)GlcNAc(b1-6)Gal(b1-4)GlcNAc
In short: as §1

[21] = molecular target: Gal(b1-3)GlcNAc(b1-6)GalNAc
In short: as §1

[22] = molecular target: Gal(b1-3)GlcNAc(b1-6)[Gal(b1-3)]GalNAc
In short: as §1

Gal(b1-3)GlcNAc6S = molecular target: Gal(b1-3)GlcNAc6S
In short: as §1

[23] = molecular target: Gal(b1-3)[Fuc(a1-4)]GlcNAc
In short: as §1

[24] = molecular target: Gal(b1-3)[Fuc(a1-4)]GlcNAc(b1-2)Man
In short: as §1

[25] = molecular target: Gal(b1-3)[Fuc(a1-4)]GlcNAc(b1-2)Man(a1-3)[Gal(b1-3)[Fuc(a1-4)]GlcNAc(b1-2)Man(a1-6)]Man(b1-4)GlcNAc(b1-4)[Fuc(a1-6)]GlcNAc
In short: as §1

[26] = molecular target: Gal(b1-3)[Fuc(a1-4)]GlcNAc(b1-3)Gal(b1-3)[Fuc(a1-4)]GlcNAc
In short: as §1

[27] = molecular target: Gal(b1-3)[Fuc(a1-4)]GlcNAc(b1-3)Gal(b1-4)[Fuc(a1-3)]GlcNAc
In short: as §1

[28] = molecular target: Gal(b1-3)[Fuc(a1-4)]GlcNAc(b1-6)GalNAc
In short: as §1

[29] = molecular target: Gal(b1-3)[GlcNAc(b1-6)]GalNAc
In short: as §1

[30] = molecular target: Gal(b1-3)[Neu5Ac(a2-6)]GalNAc
In short: as §1

[31] = molecular target: Gal(b1-3)[Neu5Ac(a2-6)]GlcNAc(b1-4)Gal(b1-4)Glc
In short: as §1

[32] = molecular target: Gal(b1-3)[Neu5Ac(b2-6)]GalNAc
In short: as §1

Gal(b1-4)Gal = molecular target: Gal(b1-4)Gal
In short: as §1

[33] = molecular target: Gal(b1-4)GalNAc(a1-3)[Fuc(a1-2)]Gal(b1-4)GlcNAc
In short: as §1

[34] = molecular target: Gal(b1-4)GalNAc(b1-3)[Fuc(a1-2)]Gal(b1-4)GlcNAc
In short: as §1

B1: OS9 (Arabidopsis thaliana) (protein)
chain: MRGSHHHHHHGMASMTGGQQMGRDLYDDDDKSRLQIFPAHLVGTFSRNNREPKYKIEFLPEDSPFHPGDNLESMVMLDKHGNRFLCYLPKEEKATSGWTSSQQNISTVMMETQQLVKLKTPDELLQPLSEKCLFRQEGWWSYEFCHQKYVRQLHVEDENKIVQEFFLGTFDPEATAAFNQTVSDASTDASQRYHSHVYTNGTTCDLTGSPREVEVRFVCAETRAMVTSITELSTCKYALTVQCPTLCKHPLFQLEKPVSHTIHCNAIPVEEDATRNKEEQAVDESPKMIADS
glycan array binding signal (z-score) [1]: -0.442 | glycan array binding signal (z-score) [2]: -0.4 | glycan array binding signal (z-score) [3]: -0.798 | glycan array binding signal (z-score) (Gal(b1-3)GlcNAc): -0.119 | glycan array binding signal (z-score) [4]: -1.06 | glycan array binding signal (z-score) [5]: 0.159 | glycan array binding signal (z-score) (Gal(b1-3)GlcNAc(b1-2)Man): -0.21 | glycan array binding signal (z-score) [6]: -0.444 | glycan array binding signal (z-score) [7]: -0.157 | glycan array binding signal (z-score) [8]: -0.168 | glycan array binding signal (z-score) [9]: -0.551 | glycan array binding signal (z-score) [10]: -1.28 | glycan array binding signal (z-score) [11]: -1.28 | glycan array binding signal (z-score) [12]: -0.982 | glycan array binding signal (z-score) [13]: -0.093 | glycan array binding signal (z-score) [14]: -0.135 | glycan array binding signal (z-score) [15]: 2.88 | glycan array binding signal (z-score) [16]: -0.814 | glycan array binding signal (z-score) [17]: -0.414 | glycan array binding signal (z-score) [18]: -0.444 | glycan array binding signal (z-score) [19]: 1.33 | glycan array binding signal (z-score) [20]: 1.29 | glycan array binding signal (z-score) [21]: 1.44 | glycan array binding signal (z-score) [22]: 0.651 | glycan array binding signal (z-score) (Gal(b1-3)GlcNAc6S): 0.414 | glycan array binding signal (z-score) [23]: 0.073 | glycan array binding signal (z-score) [24]: 0.58 | glycan array binding signal (z-score) [25]: 7.5 | glycan array binding signal (z-score) [26]: -0.51 | glycan array binding signal (z-score) [27]: -0.856 | glycan array binding signal (z-score) [28]: -0.151 | glycan array binding signal (z-score) [29]: 1.98 | glycan array binding signal (z-score) [30]: -0.994 | glycan array binding signal (z-score) [31]: -0.96 | glycan array binding signal (z-score) [32]: 0.56 | glycan array binding signal (z-score) (Gal(b1-4)Gal): -0.936 | glycan array binding signal (z-score) [33]: -0.832 | glycan array binding signal (z-score) [34]: -0.168
